Out of some 220,000 compounds screened, about 770 (0.35%) were called active. Inconclusive results, whose numbers are uncertain, are shown with a selection of clear calls. Rule as the data show it: active = binding response below about 49% or above about 150%; inconclusive = no clear call, values can overlap the other calls; inactive = in between.
What follows are molecules tested against Guanine nucleotide-binding protein G(o) subunit alpha (Homo sapiens) (UniProt P09471) (assay: RGS7-Galphao binding modulators, primary screen, biochemical, multiplexed bead flow cytometry (AID 1439;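 also: fluorescent Galphao held in activated GDP-AlF4 state binding bead-coupled RGS7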)). Settings: at 10 µM, actives lie on both sides.

By UniProt entry, the sequences of proteins in these tests, tags left out.
UniProt P09471, whole entry, looked up: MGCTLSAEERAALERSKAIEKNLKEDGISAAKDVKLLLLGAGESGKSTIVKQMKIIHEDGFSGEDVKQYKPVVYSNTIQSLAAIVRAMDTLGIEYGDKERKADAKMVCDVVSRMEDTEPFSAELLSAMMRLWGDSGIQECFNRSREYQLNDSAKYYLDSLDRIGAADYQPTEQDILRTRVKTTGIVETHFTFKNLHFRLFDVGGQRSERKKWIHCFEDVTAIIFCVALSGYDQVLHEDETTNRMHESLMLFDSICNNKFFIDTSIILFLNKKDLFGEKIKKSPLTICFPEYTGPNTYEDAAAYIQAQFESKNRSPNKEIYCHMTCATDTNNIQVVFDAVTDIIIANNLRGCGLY

SMILES	binding response (% of control)
O=C1NC(=Nc2ccc(O)cc2)S/C1=C\C=C\c1ccco1	inconclusive: 114%
O=[N+]([O-])c1ccc2nc(SCc3ccccc3Cl)sc2c1	inactive: 96.6%
Cc1noc(-c2ccccc2)c1NC(=O)Nc1ccc(Cl)cc1	inconclusive: 79.5%
O=C(NCC(c1ccco1)N1CCCCC1)c1ccc2c(c1)S(=O)(=O)c1ccccc1C2=O (centres undefined)	inactive: 102%
O=C(O)COCC(=O)Nc1ccc(-n2nc(C(F)(F)F)cc2-c2cccs2)cc1	inconclusive: 165%
CC(C)S(=O)(=O)c1csc(C(=O)Nc2ccc(F)cc2)c1N	inconclusive: 129%
O=C(c1cc(-c2ccc3c(c2)OCO3)on1)N1CCOCC1	inactive: 103%
O=C(NCc1ccccc1)c1ccc(S(=O)(=O)Nc2cccc(C(F)(F)F)c2)cc1	inconclusive: 68.6%
CC(=O)c1cc(NC(=O)c2cccc(C(F)(F)F)c2)c(=O)oc1C	inconclusive: 79.9%
c1ccc(-c2n[nH]c(-c3ccccn3)n2)nc1	inconclusive: 90.9%
COc1cccc(C(=O)NCCOc2cc(C)cc(C)c2)c1	inactive: 97.5%
COc1ccc(-c2c(C#N)c(C)nc3c2C(=O)c2ccccc2-3)cc1	inactive: 98.2%
CC(C)C(=O)N1CCC2(CC1)Oc1ccc(Cl)cc1C(=O)C21CC(c2ccc(Cl)cc2)=NO1 (centres undefined)	inconclusive: 113%
COc1ccc(C(=O)NCCn2cc(SCC(N)=O)c3ccccc32)cc1	inconclusive: 40.9%
O=C(O)/C=C/c1cccc2c1OCCO2	inconclusive: 111%
COc1cccc(CC2(CO)CCCN(CC3=Cc4cc(Cl)ccc4OC3)C2)c1 (centres undefined)	inactive: 105%
O=C(Nc1ccc(OC(F)(F)F)cc1)c1ccc(-n2cncn2)nc1	inconclusive: 154%
CC(NC(=O)Nc1ccc([N+](=O)[O-])cc1)C(c1cccs1)N1CCCC1 (centres undefined)	inactive: 102%
CCOC(=O)C(C)Sc1ncc(-c2ccc(Cl)cc2)cn1 (centres undefined)	inactive: 97.1%
COc1ccccc1/C=C/C=N/NC(=O)c1cc(-c2ccc(C)o2)[nH]n1	inconclusive: 194%
CCCNc1sc(S(=O)(=O)CCC)nc1S(=O)(=O)c1ccc(C)cc1	inactive: 96.2%
COc1ccc(N2CCN(C(=O)C3CCN(S(=O)(=O)c4ccc(F)cc4)CC3)CC2)cc1	inconclusive: 115%
COc1ccccc1N(C)S(=O)(=O)c1ccc(C(=O)OCC(=O)N2CCC2)cc1	inactive: 96%

SMILES	binding response (% of control)
O=C1NC[C@H](c2ccccc2)N(CCc2cc(C(F)(F)F)cc(C(F)(F)F)c2)C1=O	inconclusive: 130%
CC(=O)NC(NC(=S)Nc1ccc(S(N)(=O)=O)cc1)C(Cl)(Cl)Cl (centres undefined)	inconclusive: 86.6%
O=[N+]([O-])c1cccc(/C=C/C=N/Nc2nc(N3CCCCC3)nc(N3CCCCC3)n2)c1	inactive: 98.2%
COc1ccc(C(=O)N2CCOC2CNC(=O)C(=O)NCc2ccc(Cl)cc2)cc1 (centres undefined)	inactive: 98.7%
Cc1cccc(-n2c(O)c(C=NC3CCS(=O)(=O)C3)c3ccccc3c2=O)c1C (centres undefined)	inconclusive: 54.8%
COc1ccccc1/C=C/C=N/n1c(-c2ccccc2)n[nH]c1=S	inconclusive: 74.7%
N#CCCn1cc(CNCc2ccccc2)c(-c2cccc([N+](=O)[O-])c2)n1	inconclusive: 97.1%
COCCCNC(=O)/C(C#N)=C/c1ccc(F)cc1	inconclusive: 61.8%
CCOC(=O)N1CCC(NS(=O)(=O)c2ccc(NC(C)=O)c(Cl)c2)CC1	inconclusive: 132%
N#CC(c1ccccc1O)N1N=C(c2ccccc2)CC1c1ccccc1 (centres undefined)	inconclusive: 102%
Cc1cccc(C)c1NC(=S)N/N=C/c1ccc(C(=O)O)cc1	inconclusive: 68.7%
CC(=O)[C@@H]1[C@@H](C(=O)c2ccc(F)cc2)[C@]2(C(=O)Nc3ccccc32)[C@H]2C=Cc3cc(F)ccc3N12	inconclusive: 113%
CC(C)CN1CCC(=O)N([C@H](CSc2ccc(Br)cc2)Cc2ccccc2)CC1	inconclusive: 95.2%
Cc1ccc(C2NC(=NCc3ccccc3)Nc3nc(C)cc(=O)n32)cc1 (centres undefined)	inconclusive: 56.5%
O=C(O)c1ccc(N/N=C/c2cn(Cc3ccccc3F)c3ccccc23)cc1	inconclusive: 98.3%
N=c1sccn1CC(=O)Nc1ccc(SC(F)F)cc1	inactive: 108%
CCC1=C(OC(=O)N(CC)CC)N2C(=O)OC(=NCCc3c[nH]c4ccccc34)[C@]2(C)[C@H]2C1=CC[C@H]1C(=O)N(CC(=O)OC)C(=O)[C@H]12	inconclusive: 112%
CNC1(c2nnnn2-c2ccccc2C)CCOC(C)(C)C1 (centres undefined)	inconclusive: 67.8%
Cc1ccc(NNC(=O)c2c(C)noc2C)cc1Cl	inconclusive: 124%
Cc1ccc(C(=O)NCCc2ccc(S(N)(=O)=O)cc2)cc1[N+](=O)[O-]	inactive: 107%
Fc1ccccc1COc1ccc(Br)cc1CNCC1CCCO1 (centres undefined)	inconclusive: 92.7%
S=c1[nH]ccn1Cc1ccccc1	inconclusive: 82.6%
Fc1cccc(/C=N/Nc2nc3ccccc3[nH]2)c1	inconclusive: 97.9%

SMILES	binding response (% of control)
COC(=O)CSc1nc(C)c2c(n1)CCCC2	inactive: 105%
COCCN1C(=O)C(=O)/C(=C(/O)c2ccc(S(=O)(=O)N3CCOCC3)cc2)C1c1cccc(O)c1 (centres undefined)	inconclusive: 13.8%
Clc1ccccc1C1=Nn2c(nnc2-c2ccco2)SC1	inconclusive: 57.4%
COc1ccc(/C=C2\Cc3ccccc3C2=O)cc1OC	inconclusive: 133%
FC(F)(F)c1cnc(-c2cnc(-c3cccnc3)nc2)c(Cl)c1	inactive: 90.5%
CC(C)c1ccc(OCc2ccc(C(=O)O)o2)cc1	inconclusive: 72%
O=C(COC(=O)CCc1nc2ccccc2c(=O)[nH]1)Nc1ccc2c(c1)OCO2	inconclusive: -431%
COc1ccc(-c2nc(-c3cccs3)no2)cc1	inconclusive: 78.3%
COc1ccc(-c2ccc(C#N)c(SCC(=O)NC3CC3)n2)cc1OC	inconclusive: 105%
CCCc1nc(NC(=O)c2ccccc2)nc(NC(=O)c2ccccc2)n1	inconclusive: 83.2%
CCSc1nnc(NC(=O)Cn2cnc3ccccc3c2=O)s1	inconclusive: 98.7%
CCOC(=O)c1c(-c2ccc(OC)cc2)csc1NC(=O)CSc1nnc(C)c(=O)[nH]1	inconclusive: 97.1%
S=C1NCN(Cc2cccnc2)CN1c1cccc(Cl)c1	inconclusive: 11.9%
COc1cccc2c1C(CO)N1C(C#N)C3CC(C(=O)O)C(C1C2)N3C (centres undefined)	inconclusive: 94.8%
CCOC(=O)c1ccc(N2C(=O)C(CC(=O)NC)N(CCc3ccc(OC)c(OC)c3)C2=S)cc1 (centres undefined)	inconclusive: 93.2%
O=C(COC(=O)c1ccccc1O)NCCC1=CCCCC1	inconclusive: 115%
CCOC(=O)c1cnc(-n2nc(C)cc2C)nc1Oc1ccc(C#N)cc1	inconclusive: 80.8%
COc1ccc(Cc2noc(CN(C)CCc3ccccc3)n2)cc1OC	inconclusive: 105%
Cc1nn(CC#N)c(=O)n1-c1ccc(C(C)C)cc1	inconclusive: 78.1%
CC1(c2nnc(-c3ccncc3)o2)CC(c2c(Cl)cccc2Cl)=NO1 (centres undefined)	inconclusive: 105%
O=C(CSc1nnc(C2CC2)n1-c1ccccc1)NCCN1C(=O)CSC1=O	inconclusive: 99.7%
C=CCn1c(SCCCC)nc(O)cc1=O	inconclusive: 112%
CNC(=O)NC(=O)C(C)Oc1ccccc1F (centres undefined)	inactive: 101%

Given with bars between the fields: part of the list above.
SMILES | binding response (% of control)
CC(C)c1ccc(OCc2ccc(C(=O)O)o2)cc1 | inconclusive: 72%
O=C(COC(=O)CCc1nc2ccccc2c(=O)[nH]1)Nc1ccc2c(c1)OCO2 | inconclusive: -431%
COc1ccc(-c2nc(-c3cccs3)no2)cc1 | inconclusive: 78.3%
COc1ccc(-c2ccc(C#N)c(SCC(=O)NC3CC3)n2)cc1OC | inconclusive: 105%
CCCc1nc(NC(=O)c2ccccc2)nc(NC(=O)c2ccccc2)n1 | inconclusive: 83.2%

(cont.)

SMILES	binding response (% of control)
O=C(COC(=O)c1ccc(NS(=O)(=O)c2cccs2)cc1)NCC1CCCO1 (centres undefined)	inconclusive: 72.2%
COCCCNC(=O)C(CC(N)=O)NC(=O)OCc1ccccc1 (centres undefined)	inconclusive: 54.4%
Cc1cc2cc(CNC(=O)c3ccco3)ccc2n1C	inconclusive: 85.1%
CS(=O)(=O)N(CC(=O)NCc1ccncc1)c1cc(Cl)ccc1Cl	inactive: 97.6%
COc1ccc(-n2nc3c(c2NC(=O)C2CCCC2)CS(=O)C3)cc1 (centres undefined)	inactive: 103%
O=C(CN1CCCCC1)Nc1cc(Cl)ccc1Oc1ccccc1	inconclusive: 111%
C/C(=N\NC(=S)NCc1ccccc1)c1ccc2c(c1)OCCO2	inconclusive: 107%
COC(=O)CN1C(=S)N(c2ccc(F)cc2)C(=O)C1CC(=O)Nc1ccc(OC)cc1 (centres undefined)	inconclusive: 83.3%
COc1ccc(C2=CC(=O)C=CC2=O)cc1	inconclusive: 103%
CCCn1c(=O)c(C(=O)NCc2ccncc2)c(O)c2ccccc21	inactive: 78%
N#C/C(=C\c1cc2c(cc1Br)OCO2)C(=O)NCC1CCCO1 (centres undefined)	inconclusive: 49.5%
Cc1ccc(O)c(C2=NNC(c3ccc(Cl)cc3)C2)c1 (centres undefined)	inconclusive: 72.2%
CSc1sc(C(=O)NN)c2c1C1(CCC2)SCCS1	inconclusive: 58.2%
COc1c(Cl)cc(Cl)cc1/C=C/C(=O)c1ccc(NC(=O)c2cccs2)cc1	active: 15.9%
O=C(/C=C/c1ccco1)Nc1nc(-c2ccccn2)cs1	inconclusive: 72.5%
Cn1cc([N+](=O)[O-])c(C(=O)NNC(=O)c2ccc([N+](=O)[O-])cc2Cl)n1	inconclusive: 109%
COc1ccc(C2c3ccc4ccccc4c3Oc3ncn(CCCO)c(=N)c32)cc1 (centres undefined)	inconclusive: 100%
Cc1nnc(SCC(=O)Nc2ccccc2F)n1Cc1ccco1	inconclusive: 93.2%
CCOP(=O)(/C(C#N)=C(/O)c1ccccc1)c1ccccc1 (centres undefined)	inconclusive: 91.5%
COc1ccc(-c2cnc(OC(C)(C)C)nc2OC(C)(C)C)cc1OC	inactive: 104%

Three entries drawn at random from the list so far:
SMILES	binding response (% of control)
O=[N+]([O-])c1cccc(/C=C/C=N/Nc2nc(N3CCCCC3)nc(N3CCCCC3)n2)c1	inactive: 98.2%
COc1ccc(/C=C2\Cc3ccccc3C2=O)cc1OC	inconclusive: 133%
C/C(=N\NC(=S)NCc1ccccc1)c1ccc2c(c1)OCCO2	inconclusive: 107%
